# Experimental data reported in the supplement of paper PMC7666118.
# Amino acid sequences for entries named in this document (tags omitted). A change or cut given only in a name is not applied to a line headed by its entry.
# UniProt P43686, whole entry: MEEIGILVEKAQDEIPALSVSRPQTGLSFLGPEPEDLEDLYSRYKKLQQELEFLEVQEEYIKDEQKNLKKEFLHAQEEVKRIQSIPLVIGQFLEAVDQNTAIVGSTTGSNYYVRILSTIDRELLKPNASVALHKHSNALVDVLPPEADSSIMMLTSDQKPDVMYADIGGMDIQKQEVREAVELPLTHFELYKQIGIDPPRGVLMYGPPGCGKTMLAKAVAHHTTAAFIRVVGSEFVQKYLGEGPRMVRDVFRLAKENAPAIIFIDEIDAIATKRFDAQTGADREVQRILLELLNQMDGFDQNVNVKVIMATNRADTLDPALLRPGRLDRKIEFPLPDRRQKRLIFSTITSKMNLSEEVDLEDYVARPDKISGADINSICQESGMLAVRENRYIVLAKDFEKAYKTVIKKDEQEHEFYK
# UniProt Q9Y3E5: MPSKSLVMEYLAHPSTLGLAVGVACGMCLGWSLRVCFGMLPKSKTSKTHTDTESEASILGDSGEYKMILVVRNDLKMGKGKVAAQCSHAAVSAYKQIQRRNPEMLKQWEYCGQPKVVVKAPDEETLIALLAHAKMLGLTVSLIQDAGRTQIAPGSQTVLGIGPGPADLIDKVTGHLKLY
# UniProt P28062: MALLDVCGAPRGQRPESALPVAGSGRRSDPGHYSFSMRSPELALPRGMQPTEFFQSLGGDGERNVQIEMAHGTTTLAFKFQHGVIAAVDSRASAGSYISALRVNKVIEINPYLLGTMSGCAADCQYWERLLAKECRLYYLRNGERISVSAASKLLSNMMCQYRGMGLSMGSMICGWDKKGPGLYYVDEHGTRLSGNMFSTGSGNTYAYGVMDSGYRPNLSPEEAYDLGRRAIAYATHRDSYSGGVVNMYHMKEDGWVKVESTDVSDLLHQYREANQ
# UniProt P25787: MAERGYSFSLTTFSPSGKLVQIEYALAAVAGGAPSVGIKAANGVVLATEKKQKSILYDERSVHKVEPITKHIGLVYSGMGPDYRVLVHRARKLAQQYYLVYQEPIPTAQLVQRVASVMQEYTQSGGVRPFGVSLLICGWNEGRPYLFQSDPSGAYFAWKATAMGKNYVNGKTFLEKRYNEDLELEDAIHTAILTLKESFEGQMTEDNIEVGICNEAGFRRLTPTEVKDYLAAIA
# UniProt P06454: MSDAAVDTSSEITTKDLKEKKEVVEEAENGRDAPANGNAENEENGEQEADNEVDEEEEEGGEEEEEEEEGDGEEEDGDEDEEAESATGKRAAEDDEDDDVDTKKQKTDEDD
# UniProt P40306: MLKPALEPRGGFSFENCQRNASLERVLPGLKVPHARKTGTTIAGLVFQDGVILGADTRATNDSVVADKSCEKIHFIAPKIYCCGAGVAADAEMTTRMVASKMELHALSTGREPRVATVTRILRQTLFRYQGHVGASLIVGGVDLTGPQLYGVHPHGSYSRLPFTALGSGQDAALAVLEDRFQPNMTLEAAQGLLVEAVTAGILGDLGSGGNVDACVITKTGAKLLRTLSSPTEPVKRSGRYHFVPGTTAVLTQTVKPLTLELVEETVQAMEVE
# UniProt Q9H0Z9: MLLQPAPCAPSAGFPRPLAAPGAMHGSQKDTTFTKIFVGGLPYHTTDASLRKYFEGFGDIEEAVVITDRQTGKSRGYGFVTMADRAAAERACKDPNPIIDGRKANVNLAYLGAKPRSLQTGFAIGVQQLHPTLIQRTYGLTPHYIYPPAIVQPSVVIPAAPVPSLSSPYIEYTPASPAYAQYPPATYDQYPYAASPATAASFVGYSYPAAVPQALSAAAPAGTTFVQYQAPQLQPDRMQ
# UniProt P24158: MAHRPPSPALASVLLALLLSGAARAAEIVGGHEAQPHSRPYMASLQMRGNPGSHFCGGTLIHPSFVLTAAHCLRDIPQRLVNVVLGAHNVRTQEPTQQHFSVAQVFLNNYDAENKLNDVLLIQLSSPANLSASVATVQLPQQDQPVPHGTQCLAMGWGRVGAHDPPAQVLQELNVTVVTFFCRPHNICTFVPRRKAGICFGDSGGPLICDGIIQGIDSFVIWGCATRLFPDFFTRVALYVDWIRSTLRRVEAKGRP
# UniProt Q15042: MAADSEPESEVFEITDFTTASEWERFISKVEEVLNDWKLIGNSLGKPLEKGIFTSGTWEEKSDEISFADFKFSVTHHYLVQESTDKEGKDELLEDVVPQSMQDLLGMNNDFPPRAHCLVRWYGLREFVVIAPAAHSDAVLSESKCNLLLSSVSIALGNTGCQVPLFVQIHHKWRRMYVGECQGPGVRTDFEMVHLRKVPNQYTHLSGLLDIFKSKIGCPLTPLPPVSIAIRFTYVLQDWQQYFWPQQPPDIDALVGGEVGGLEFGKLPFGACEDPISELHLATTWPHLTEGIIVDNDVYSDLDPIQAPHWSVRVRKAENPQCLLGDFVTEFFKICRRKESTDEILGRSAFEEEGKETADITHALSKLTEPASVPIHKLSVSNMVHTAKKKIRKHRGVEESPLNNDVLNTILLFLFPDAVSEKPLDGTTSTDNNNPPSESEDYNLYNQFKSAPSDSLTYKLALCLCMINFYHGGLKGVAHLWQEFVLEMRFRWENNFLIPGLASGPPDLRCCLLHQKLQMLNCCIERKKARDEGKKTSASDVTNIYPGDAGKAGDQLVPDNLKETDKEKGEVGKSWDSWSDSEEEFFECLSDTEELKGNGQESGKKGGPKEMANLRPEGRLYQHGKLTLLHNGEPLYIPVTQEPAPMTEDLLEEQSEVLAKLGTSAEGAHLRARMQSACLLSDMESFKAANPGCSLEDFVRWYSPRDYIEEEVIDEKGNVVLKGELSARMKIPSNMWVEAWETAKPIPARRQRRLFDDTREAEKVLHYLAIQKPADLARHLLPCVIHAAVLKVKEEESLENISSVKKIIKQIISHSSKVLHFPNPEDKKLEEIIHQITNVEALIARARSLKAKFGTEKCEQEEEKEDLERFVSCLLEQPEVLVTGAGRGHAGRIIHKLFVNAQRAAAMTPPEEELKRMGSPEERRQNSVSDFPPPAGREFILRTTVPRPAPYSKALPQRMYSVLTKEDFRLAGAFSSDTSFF
# UniProt P49756, whole entry: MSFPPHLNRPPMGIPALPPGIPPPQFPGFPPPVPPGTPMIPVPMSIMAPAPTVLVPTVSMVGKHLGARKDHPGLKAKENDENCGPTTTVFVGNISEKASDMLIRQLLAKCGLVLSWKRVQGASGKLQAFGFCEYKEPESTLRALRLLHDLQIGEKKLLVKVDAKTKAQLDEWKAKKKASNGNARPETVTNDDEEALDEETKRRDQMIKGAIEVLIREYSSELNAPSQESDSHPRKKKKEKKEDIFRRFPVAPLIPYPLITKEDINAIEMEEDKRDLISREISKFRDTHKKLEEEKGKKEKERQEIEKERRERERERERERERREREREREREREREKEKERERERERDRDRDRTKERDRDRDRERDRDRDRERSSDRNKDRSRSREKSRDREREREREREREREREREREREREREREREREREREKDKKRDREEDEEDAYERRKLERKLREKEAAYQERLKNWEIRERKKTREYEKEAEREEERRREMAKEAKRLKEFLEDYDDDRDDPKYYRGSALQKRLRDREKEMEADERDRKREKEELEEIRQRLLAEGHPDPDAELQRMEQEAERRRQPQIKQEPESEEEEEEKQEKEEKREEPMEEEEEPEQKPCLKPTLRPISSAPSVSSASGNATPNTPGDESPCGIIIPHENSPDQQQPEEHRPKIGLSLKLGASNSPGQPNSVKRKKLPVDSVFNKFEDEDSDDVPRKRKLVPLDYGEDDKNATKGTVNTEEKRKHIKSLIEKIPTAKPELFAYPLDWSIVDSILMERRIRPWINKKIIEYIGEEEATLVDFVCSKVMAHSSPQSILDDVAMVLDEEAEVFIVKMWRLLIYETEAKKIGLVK
# UniProt Q14289, whole entry, looked up: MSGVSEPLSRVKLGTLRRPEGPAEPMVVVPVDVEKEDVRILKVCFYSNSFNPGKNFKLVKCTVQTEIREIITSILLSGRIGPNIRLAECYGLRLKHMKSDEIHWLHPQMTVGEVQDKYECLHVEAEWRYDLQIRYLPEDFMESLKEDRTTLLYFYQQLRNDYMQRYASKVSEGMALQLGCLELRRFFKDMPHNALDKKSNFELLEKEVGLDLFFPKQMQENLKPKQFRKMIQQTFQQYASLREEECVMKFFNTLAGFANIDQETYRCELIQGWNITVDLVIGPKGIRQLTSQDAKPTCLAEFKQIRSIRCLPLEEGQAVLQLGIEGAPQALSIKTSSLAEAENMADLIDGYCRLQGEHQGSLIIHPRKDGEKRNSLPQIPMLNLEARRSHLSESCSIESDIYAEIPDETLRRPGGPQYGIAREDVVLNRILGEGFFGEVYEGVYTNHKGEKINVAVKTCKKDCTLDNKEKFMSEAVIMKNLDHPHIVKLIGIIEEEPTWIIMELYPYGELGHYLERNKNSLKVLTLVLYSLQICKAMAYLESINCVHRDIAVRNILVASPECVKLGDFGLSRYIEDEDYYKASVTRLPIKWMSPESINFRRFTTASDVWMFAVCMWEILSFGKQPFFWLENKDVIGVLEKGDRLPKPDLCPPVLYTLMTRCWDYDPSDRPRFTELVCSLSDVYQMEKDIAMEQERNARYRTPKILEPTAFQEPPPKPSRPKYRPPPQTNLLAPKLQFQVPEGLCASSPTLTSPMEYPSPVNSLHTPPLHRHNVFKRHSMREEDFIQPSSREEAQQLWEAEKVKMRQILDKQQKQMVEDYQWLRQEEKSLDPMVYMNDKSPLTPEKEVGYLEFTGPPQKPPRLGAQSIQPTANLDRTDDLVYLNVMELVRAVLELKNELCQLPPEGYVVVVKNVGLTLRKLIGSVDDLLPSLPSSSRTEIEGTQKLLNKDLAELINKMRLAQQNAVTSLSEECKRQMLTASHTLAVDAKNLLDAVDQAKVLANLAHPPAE
# UniProt Q9UPN6: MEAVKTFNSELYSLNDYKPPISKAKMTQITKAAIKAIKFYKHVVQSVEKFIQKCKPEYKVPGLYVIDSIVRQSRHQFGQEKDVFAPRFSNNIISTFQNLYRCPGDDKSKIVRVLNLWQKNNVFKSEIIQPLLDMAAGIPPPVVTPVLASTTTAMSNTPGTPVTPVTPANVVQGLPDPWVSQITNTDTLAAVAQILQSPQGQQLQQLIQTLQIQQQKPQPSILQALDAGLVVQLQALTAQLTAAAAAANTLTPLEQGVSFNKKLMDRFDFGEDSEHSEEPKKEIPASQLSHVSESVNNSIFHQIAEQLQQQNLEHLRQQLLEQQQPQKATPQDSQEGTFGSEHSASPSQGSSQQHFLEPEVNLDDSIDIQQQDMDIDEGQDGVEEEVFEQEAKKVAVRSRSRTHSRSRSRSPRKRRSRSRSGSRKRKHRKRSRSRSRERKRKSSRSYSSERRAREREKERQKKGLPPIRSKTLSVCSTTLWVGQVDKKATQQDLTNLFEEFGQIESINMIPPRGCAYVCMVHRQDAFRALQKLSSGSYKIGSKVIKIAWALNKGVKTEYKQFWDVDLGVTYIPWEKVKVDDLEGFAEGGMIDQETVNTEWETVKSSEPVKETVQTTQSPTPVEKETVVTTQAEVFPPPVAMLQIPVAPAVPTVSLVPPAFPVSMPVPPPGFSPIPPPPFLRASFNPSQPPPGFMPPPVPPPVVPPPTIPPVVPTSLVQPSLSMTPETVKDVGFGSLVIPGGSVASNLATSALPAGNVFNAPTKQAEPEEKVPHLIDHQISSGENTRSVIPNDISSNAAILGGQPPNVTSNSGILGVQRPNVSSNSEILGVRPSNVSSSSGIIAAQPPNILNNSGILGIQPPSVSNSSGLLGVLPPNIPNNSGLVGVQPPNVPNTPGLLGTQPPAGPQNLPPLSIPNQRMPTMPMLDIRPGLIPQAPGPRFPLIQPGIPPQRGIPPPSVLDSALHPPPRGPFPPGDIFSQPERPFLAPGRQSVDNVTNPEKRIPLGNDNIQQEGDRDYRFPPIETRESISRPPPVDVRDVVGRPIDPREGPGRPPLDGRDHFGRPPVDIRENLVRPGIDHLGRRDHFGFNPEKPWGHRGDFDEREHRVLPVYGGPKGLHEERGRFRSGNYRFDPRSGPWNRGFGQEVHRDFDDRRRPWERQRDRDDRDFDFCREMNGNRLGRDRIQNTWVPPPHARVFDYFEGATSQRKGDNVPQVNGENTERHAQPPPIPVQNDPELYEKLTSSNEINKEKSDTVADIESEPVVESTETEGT
# UniProt Q9BTD8: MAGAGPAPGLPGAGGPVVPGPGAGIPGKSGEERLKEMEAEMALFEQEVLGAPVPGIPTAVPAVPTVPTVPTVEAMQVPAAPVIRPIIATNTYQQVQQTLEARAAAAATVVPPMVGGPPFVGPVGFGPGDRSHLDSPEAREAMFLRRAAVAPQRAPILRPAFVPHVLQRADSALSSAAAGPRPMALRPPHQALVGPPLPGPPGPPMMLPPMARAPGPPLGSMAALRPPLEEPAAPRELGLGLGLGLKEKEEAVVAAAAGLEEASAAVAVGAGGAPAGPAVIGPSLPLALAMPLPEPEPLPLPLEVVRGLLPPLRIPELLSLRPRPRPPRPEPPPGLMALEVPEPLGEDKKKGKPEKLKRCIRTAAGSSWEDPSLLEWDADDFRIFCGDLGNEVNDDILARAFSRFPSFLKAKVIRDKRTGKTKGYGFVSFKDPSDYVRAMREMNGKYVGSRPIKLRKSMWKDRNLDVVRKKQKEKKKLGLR
# Some of the results follow.
# Compound: COc1ccc(Cn2ccc3ccc(C(=O)NO)cc32)cc1
# Test: dose-dependent thermal stabilisation call (2D-TPP, DLPTP, 10% FDR) (binary (1 = stabilised)); higher = stabilised by the compound
# Settings: system: HL-60 intact cells; concentration range 0.04-10 µM
row,Target,dose-dependent thermal stabilisation call
1,PSMC4 (UniProt P43686),inactive: 0
2,PTRH2 (UniProt Q9Y3E5),inactive: 0
3,RAB35 (UniProt Q15286),inactive: 0
4,PSMB8 (UniProt P28062),inactive: 0
5,RARS2 (UniProt Q5T160),inactive: 0
6,PSMA2 (UniProt P25787),inactive: 0
7,PTBP1 (UniProt P26599),inactive: 0
8,PTMA (UniProt P06454),inactive: 0
9,RBM15B (UniProt Q8NDT2),inactive: 0
10,RAVER1 (UniProt Q8IY67),inactive: 0
11,PSMB10 (UniProt P40306),inactive: 0
12,RBM38 (UniProt Q9H0Z9),inactive: 0
13,PRTN3 (UniProt P24158),inactive: 0
14,RAB3GAP (UniProt Q15042),inactive: 0
15,PROSC (UniProt O94903),inactive: 0
16,QARS,inactive: 0
17,RBM25 (UniProt P49756),inactive: 0
18,PTDSS1 (UniProt P48651),inactive: 0
19,PTK2B (UniProt Q14289),active: 1
20,RBM16 (UniProt Q9UPN6),inactive: 0
21,RAB6B (UniProt Q9NRW1),inactive: 0
22,PTGR1 (UniProt Q14914),active: 1
23,RABGAP1L,inactive: 0
24,PRNP,inactive: 0
25,PRPF3 (UniProt O43395),inactive: 0
26,RBM28 (UniProt Q9NW13),inactive: 0
27,RBM42 (UniProt Q9BTD8),inactive: 0
28,PRPF39 (UniProt Q86UA1),inactive: 0

# Looked up one by one from the list above, two records:
row,Target,dose-dependent thermal stabilisation call
1,PSMC4 (UniProt P43686),inactive: 0
18,PTDSS1 (UniProt P48651),inactive: 0
